Patent US7893056B2, “Peptide deformylase inhibitors” (GlaxoSmithKline LLC, priority 2007, dated 2011)
Some entries share one result that the patent states for a list of compounds.

Key:
[1] = target: T1, Staphylococcus aureus PDF (SaPDF) (Staphylococcus aureus, UniProt P68826); experiment: PDF IC50 assay (FDH-coupled), S. aureus PDF; format: biochemical; settings: read-out: IC50, inhibition of S. aureus PDF activity
T1 sequence (P68826 1-183): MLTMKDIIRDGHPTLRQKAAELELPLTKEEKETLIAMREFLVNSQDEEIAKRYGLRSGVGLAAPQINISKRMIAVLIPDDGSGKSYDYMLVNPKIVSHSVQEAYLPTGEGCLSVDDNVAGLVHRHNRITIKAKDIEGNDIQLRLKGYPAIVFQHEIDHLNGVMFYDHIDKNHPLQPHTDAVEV

[2] = target: T2, Streptococcus pneumoniae PDF (Streptococcus pneumoniae serotype 4, UniProt Q9F2F0); experiment: PDF IC50 assay (FDH-coupled), S. pneumoniae PDF; format: biochemical; settings: read-out: IC50, inhibition of S. pneumoniae PDF activity
T2 sequence (Q9F2F0 1-203): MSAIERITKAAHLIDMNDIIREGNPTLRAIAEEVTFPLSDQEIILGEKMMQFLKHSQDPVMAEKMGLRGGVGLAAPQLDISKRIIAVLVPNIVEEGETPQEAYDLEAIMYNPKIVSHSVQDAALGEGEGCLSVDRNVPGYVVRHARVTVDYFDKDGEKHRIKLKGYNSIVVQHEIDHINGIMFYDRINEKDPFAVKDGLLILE

Compound | IC50 [1] [nM] | IC50 [2] [nM]
Cc1nc(NNC(=O)[C@H](CC2CCCC2)CN(O)C=O)c(F)c(N2CCN(C)[C@@H](C)C2)n1 [Example 97, [(2R)-2-(Cyclopentylmethyl)-3-(2-{6-[(3S)-3,4-dimethyl-1-piperazinyl]-5-fluoro-2-methyl-4-pyrimidinyl}hydrazino)-3-oxopropyl]hydroxyformamide] | ≤ 100 | ≤ 100
CC1(N2CCOCC2)CN(c2nc(Cl)nc(NNC(=O)[C@H](CC3CCCC3)CN(O)C=O)c2F)C1 [Example 164, [(2R)-3-(2-{2-Chloro-5-fluoro-6-[3-methyl-3-(4-morpholinyl)-1-azetidinyl]-4-pyrimidinyl}hydrazino)-2-(cyclopentylmethyl)-3-oxopropyl]hydroxyformamide] | ≤ 100 | ≤ 100
CSc1nc(NNC(=O)[C@H](CC2CCCC2)CN(O)C=O)c(F)c(N2CCC[C@@H](N(C)C)C2)n1 [Example 132, ((2R)-2-(Cyclopentylmethyl)-3-{2-[6-[(3R)-3-(dimethylamino)-1-piperidinyl]-5-fluoro-2-(methylthio)-4-pyrimidinyl]hydrazino}-3-oxopropyl)hydroxyformamide] | ≤ 100 | ≤ 100
Cc1nc(NNC(=O)[C@H](CC2CCCC2)CN(O)C=O)c(F)c(N2C[C@H]3COC[C@H]3C2)n1 [Example 99, ((2R)-2-(Cyclopentylmethyl)-3-{2-[5-fluoro-2-methyl-6-(tetrahydro-1H-furo[3,4-c]pyrrol-5(3H)-yl)-4-pyrimidinyl]hydrazino}-3-oxopropyl)hydroxyformamide] | ≤ 100 | ≤ 100
O=CN(O)C[C@@H](CC1CCCC1)C(=O)NNc1nc(Cl)nc(N2CCN3CCC[C@@H]3C2)c1F [Example 174, [(2R)-3-(2-{2-Chloro-5-fluoro-6-[(8aR)-hexahydropyrrolo[1,2-a]pyrazin-2(1H)-yl]-4-pyrimidinyl}hydrazino)-2-(cyclopentylmethyl)-3-oxopropyl]hydroxyformamide] | ≤ 100 | ≤ 100
CCN1CCN(c2nc(Cl)nc(NNC(=O)[C@H](CC3CCCC3)CN(O)C=O)c2F)CC1 [Example 54, [(2R)-3-{2-[2-Chloro-6-(4-ethyl-1-piperazinyl)-5-fluoro-4-pyrimidinyl]hydrazino}-2-(cyclopentylmethyl)-3-oxopropyl]hydroxyformamide] | ≤ 100 | ≤ 100
O=CN(O)C[C@@H](CC1CCCC1)C(=O)NNc1nc(Cl)nc(NCC2CC2)c1F [Example 219, [(2R)-3-(2-{2-Chloro-6-[(cyclopropylmethyl)amino]-5-fluoro-4-pyrimidinyl}hydrazino)-2-(cyclopentylmethyl)-3-oxopropyl]hydroxyformamide] | ≤ 100 | ≤ 100
CSc1nc(NNC(=O)[C@H](CC2CCCC2)CN(O)C=O)c(F)c(N2CCN3CCC[C@H]3C2)n1 [Example 111, ((2R)-2-(Cyclopentylmethyl)-3-{2-[5-fluoro-6-[(8aS)-hexahydropyrrolo[1,2-a]pyrazin-2(1H)-yl]-2-(methylthio)-4-pyrimidinyl]hydrazino}-3-oxopropyl)hydroxyformamide] | ≤ 100 | ≤ 100
CN1CCN(c2nc(C(F)F)nc(NNC(=O)[C@H](CC3CCCC3)CN(O)C=O)c2F)CC1 [Example 8, ((2R)-2-(Cyclopentylmethyl)-3-{2-[2-(difluoromethyl)-5-fluoro-6-(4-methyl-1-piperazinyl)-4-pyrimidinyl]hydrazino}-3-oxopropyl)hydroxyformamide] | ≤ 100 | ≤ 100
CC[C@H](Nc1nc(OC)nc(NNC(=O)[C@H](CC2CCCC2)CN(O)C=O)c1F)C(=O)N1CCCC1 [Example 79, {(2R)-2-(Cyclopentylmethyl)-3-[2-(5-fluoro-2-(methyloxy)-6-{[(1S)-1-(1-pyrrolidinylcarbonyl)propyl]amino}-4-pyrimidinyl)hydrazino]-3-oxopropyl}hydroxyformamide] | ≤ 100 | ≤ 100
CSc1nc(NNC(=O)[C@H](CC2CCCC2)CN(O)C=O)c(F)c(N(C)C)n1 [Example 45, ((2R)-2-(Cyclopentylmethyl)-3-{2-[6-(dimethylamino)-5-fluoro-2-(methylthio)-4-pyrimidinyl]hydrazino}-3-oxopropyl)hydroxyformamide] | ≤ 100 | ≤ 100
CCCN(C)C[C@@H]1CCCN1c1nc(C)nc(NNC(=O)[C@H](CC2CCCC2)CN(O)C=O)c1F [Example 271, ((2R)-2-(Cyclopentylmethyl)-3-{2-[5-fluoro-2-methyl-6-((2S)-2-{[methyl(propyl)amino]methyl}-1-pyrrolidinyl)-4-pyrimidinyl]hydrazino}-3-oxopropyl)hydroxyformamide] | ≤ 100 | ≤ 100
O=CN(O)C[C@@H](CC1CCCC1)C(=O)NNc1nc(Cl)nc(N2CCC2)c1F [Example 53, [(2R)-3-{2-[6-(1-Azetidinyl)-2-chloro-5-fluoro-4-pyrimidinyl]hydrazino}-2-(cyclopentylmethyl)-3-oxopropyl]hydroxyformamide] | ≤ 100 | ≤ 100
O=CN(O)C[C@@H](CC1CCCC1)C(=O)NNc1nc(Cl)nc(NCc2nccs2)c1F [Example 191, [(2R)-3-(2-{2-Chloro-5-fluoro-6-[(1,3-thiazol-2-ylmethyl)amino]-4-pyrimidinyl}hydrazino)-2-(cyclopentylmethyl)-3-oxopropyl]hydroxyformamide] | ≤ 100 | ≤ 100
CC1(O)CCN(c2nc(Cl)nc(NNC(=O)[C@H](CC3CCCC3)CN(O)C=O)c2F)C1 (mixture of isomers) [Example 140, [(2R)-3-{2-[2-Chloro-5-fluoro-6-(3-hydroxy-3-methyl-1-pyrrolidinyl)-4-pyrimidinyl]hydrazino}-2-(cyclopentylmethyl)-3-oxopropyl]hydroxyformamide] | ≤ 100 | ≤ 100
COC1CN(c2nc(Cl)nc(NNC(=O)[C@H](CC3CCCC3)CN(O)C=O)c2F)C1 [Example 56, [(2R)-3-(2-{2-Chloro-5-fluoro-6-[3-(methyloxy)-1-azetidinyl]-4-pyrimidinyl}hydrazino)-2-(cyclopentylmethyl)-3-oxopropyl]hydroxyformamide] | ≤ 100 | ≤ 100
CCNc1nc(CC)nc(NNC(=O)[C@H](CC2CCCC2)CN(O)C=O)c1F [Example 35, N-[(2R)-2-(Cyclopentylmethyl)-3-{2-[2-ethyl-6-(ethylamino)-5-fluoro-4-pyrimidinyl]hydrazino}-3-oxopropyl]-N-hydroxyformamide] | ≤ 100 | ≤ 100
CCc1nc(NNC(=O)[C@H](CC2CCCC2)CN(O)C=O)c(F)c(N2CC[C@@H](O)C2)n1 [Example 30, N-[(2R)-2-(Cyclopentylmethyl)-3-(2-{2-ethyl-5-fluoro-6-[(3R)-3-hydroxy-1-pyrrolidinyl]-4-pyrimidinyl}hydrazino)-3-oxopropyl]-N-hydroxyformamide] | ≤ 100 | ≤ 100
CCc1nc(NNC(=O)[C@H](CC2CCCC2)CN(O)C=O)c(F)c(N2CCN(C)[C@H](C)C2)n1 [Example 39, N-[(2R)-2-(Cyclopentylmethyl)-3-(2-{6-[(3R)-3,4-dimethyl-1-piperazinyl]-2-ethyl-5-fluoro-4-pyrimidinyl}hydrazino)-3-oxopropyl]-N-hydroxyformamide] | ≤ 100 | ≤ 100
CC[C@@H]1CN(c2nc(Cl)nc(NNC(=O)[C@H](CC3CCCC3)CN(O)C=O)c2F)[C@H](C)CN1C [Example 261, N-[(2R)-3-(2-{2-Chloro-6-[(2R,5R)-5-ethyl-2,4-dimethyl-1-piperazinyl]-5-fluoro-4-pyrimidinyl}hydrazino)-2-(cyclopentylmethyl)-3-oxopropyl]-N-hydroxyformamide] | ≤ 100 | ≤ 100
COCCN(C)c1nc(C)nc(NNC(=O)[C@H](CC2CCCC2)CN(O)C=O)c1F [Example 17, {(2R)-2-(Cyclopentylmethyl)-3-[2-(5-fluoro-2-methyl-6-{methyl[2-(methyloxy)ethyl]amino}-4-pyrimidinyl)hydrazino]-3-oxopropyl}hydroxyformamide] | ≤ 100 | ≤ 100
O=CN(O)C[C@@H](CC1CCCC1)C(=O)NNc1nc(C(F)F)nc(NC2CC2)c1F [Example 82, ((2R)-2-(Cyclopentylmethyl)-3-{2-[6-(cyclopropylamino)-2-(difluoromethyl)-5-fluoro-4-pyrimidinyl]hydrazino}-3-oxopropyl)hydroxyformamide] | ≤ 100 | ≤ 100
Cc1nc(NNC(=O)[C@H](CC2CCCC2)CN(O)C=O)c(F)c(N2CCN(C)[C@@H](C)[C@@H]2C)n1 [Example 202, N-[(2R)-2-(Cyclopentylmethyl)-3-(2-{5-fluoro-2-methyl-6-[(2S,3S)-2,3,4-trimethyl-1-piperazinyl]-4-pyrimidinyl}hydrazino)-3-oxopropyl]-N-hydroxyformamide] | ≤ 100 | ≤ 100
CSc1nc(NCc2nccs2)c(F)c(NNC(=O)[C@H](CC2CCCC2)CN(O)C=O)n1 [Example 206, [(2R)-2-(Cyclopentylmethyl)-3-(2-{5-fluoro-2-(methylthio)-6-[(1,3-thiazol-2-ylmethyl)amino]-4-pyrimidinyl}hydrazino)-3-oxopropyl]hydroxyformamide] | ≤ 100 | ≤ 100
CCc1nc(NNC(=O)[C@H](CC2CCCC2)CN(O)C=O)c(F)c(NC2CC2)n1 [Example 31, N-[(2R)-2-(Cyclopentylmethyl)-3-{2-[6-(cyclopropylamino)-2-ethyl-5-fluoro-4-pyrimidinyl]hydrazino}-3-oxopropyl]-N-hydroxyformamide] | ≤ 100 | ≤ 100
